Patent EP3758732B1 (Leidos, Inc., dated 2024)
These are yes or no findings as the source states them, for the method shown. Some results given as binding are weak or reduced against the parent protein; the word gives no strength.

Amino acid sequences for entries named in this document (tags omitted). Residues count along the entry.
UniProt Q15116, residues 25-167: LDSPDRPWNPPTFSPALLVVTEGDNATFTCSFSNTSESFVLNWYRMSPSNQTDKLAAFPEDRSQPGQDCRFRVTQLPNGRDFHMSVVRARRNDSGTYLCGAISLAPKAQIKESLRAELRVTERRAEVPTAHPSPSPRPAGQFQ

Columns and labels:
[1] = target: T1, soluble recombinant human PD-1 receptor (human, UniProt Q15116 25-167, limits assumed); assay: BIACORE
T1 construct: also called human PD-1 receptors

[2] = target: T1, soluble recombinant human PD-1 receptor; assay: clonal phage ELISA

## WNLPASFHNHHIRPHEHEWIQ (also called WQ-21; peptide WQ20) [WQ20]
[1]
  binding: binds
[2]
  binding: binds
